Reference: PubChem BioAssay AID1508600 (Functional Genomics Laboratory (NCATS/FGL), 2020)
Among all 53,000 sequences or so, about 3,700 (7%) were called active.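 How the source made its calls: active means gene knockdowns whose robust z-score for IL-1 alpha signal is at least 2 or at most -2, so actives lie on both sides; inactive means the rest.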 Some of the results follow.

Assay: Components of the Cytosolic LPS Sensing Pathway: Gene Identification via Genome-wide siRNA Screen;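 further: robust z of the log signal after scaling to non-targeting control siRNA wells of the plate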
Conditions: RAW264.7 macrophages, IL-1a HTRF, actives lie on both sides, screened at 100 nM (by protocol), cells primed 5 h with Pam3CSK4 first
In short: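 Read-out: IL-1a HTRF on supernatant, divided by plate negative-control median ×100, log-transformed and converted to robust z-score. Cells were RAW264.7 given 100 nM siRNA, Pam3CSK4-primed 5 hours, then LipidA-transfected 24 hour.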

Sequence	z-score
CCAACAAUUCUGCCAAGACTT against Arrb2	active: -2.57
GGCAUUACCAUUGGAUCUGTT against Mgl2	inactive: 0.219
GGGAAUGGCUUGAUUCUGUTT against Olfr609	inactive: 0.514
GGAAAGUUGAUAGAAAGUGTT against R3hcc1l	inactive: 0.114
GGAAAUCAACAUGUUAAAGTT against Mink1	inactive: 1.21
GGUGCUGAGGCUGAUUCUCTT against Capn15	active: 3.35
GGAAUCUGCAUGGUUUGCCTT against Vgll4	inactive: 0.466
GGAAAUACAAAUGAGUUGATT against Txndc9	inactive: 0.622
GGCCUUUCUCACACUGCAUTT against Fto	inactive: -0.29
GGAUUGCUCAGUAUUCUACTT against Vmn1r49	inactive: 0.0272
GGCAGGCAAAAAGCCUUUUTT against Olfr1022	inactive: 0.687
GCUAUCCUUUCUUGCUGCATT against Tlr12	inactive: -0.0347
GGUCUUCAAGGCACAUAAGTT against Zbtb46	inactive: -0.489
GGUGCUAUUAUCGUGGAUCTT against Unc45a	inactive: 0.463
CAGCUCUCUUGCUCAAACATT against Olfr815	inactive: -0.829
GCUAAGAGCUGAAAGUGAATT against Cep170	inactive: -0.0689
GGGCUUUCUUUAUUUUGUGTT against Lcn10	inactive: -0.347
GGUGGUUUGUGUUACAUUUTT against Ifnar2	active: 2.38
CGAAACAUCAAUAAAUGCUTT against Penk	inactive: 0.18
GGUGUAGCUGGAAUUGGCATT against Nlrp4b	inactive: -0.0207
GGGUUCAGACAUGUUGUUATT against Ang	inactive: -0.577
GGUGCUCUGAGGAACUCCATT against Olfr1491	inactive: 0.622
GCUUAAUGAGGAAAUACCATT against Ptpn12	inactive: 0.759

Sequence	z-score
CGCAAAACCGGGUCAAAUCTT against F9	inactive: 1.96
GGUAAAACAGGUUUAGAGATT against Slc1a4	inactive: -0.46
GGAUACCUUGCCUUUCUUATT against Bmpr1a	inactive: -0.538
GGGACAGGUUGAGGUCUAUTT against Vmn1r233	active: 2.01
GACCCAGAAAAAGGAGGGCTT against H2bc1	inactive: 1.14
GGAAUGGUUUUUCAAGACUTT against Iqca1l	inactive: -0.889
GCCCAAGAGUUGAGAUUCUTT against Kcnj14	inactive: 0.301
GGUGUUCGACUUUGAGCGCTT against Smad6	inactive: 1.88
GGUUUUUCAAUUAAACGGATT against Cd63	inactive: -0.659
GCUCCAGAUGUUCAGAGCUTT against Fbxo9	active: -2.43
AACCAACUCAGCUUACAUUTT against Tcaim	inactive: -0.156
GGAAGAAUCCACUUUGAACTT against Chil4	inactive: 0.048
GGUCAUGGCAUUGAACAGUTT against Tbc1d7	inactive: -0.123
GGGACCAGAUGAAGAAGGATT against Coq4	inactive: 0.267
GGAGAAGAGUUAUUGGAUATT against Dnajb4	inactive: 0.901
GGUUGUGCUGAAGAGGUUGTT against Rpl18	inactive: 0.249
CCGGUCACCAAAUGACUUATT against Gm5105	inactive: 0.264
GGACUGUGAAAAGAUGUACTT against Prss30	inactive: -0.835
GGUGACUGACAGCUGCCAATT against Prima1	inactive: 0.0318
GGAAUGGAUAAAAACAUUGTT against Tank	inactive: 1.27
GCUAACCAGUAACUUCGAATT against Deup1	inactive: -0.741
GGAUUAUGUCCUGAAGAUGTT against Cyp8b1	inactive: 0.526
CGCCGAAACACUCGUUAUATT against Atp13a2	inactive: -0.153

Sequence	z-score
GGUGAAGCUCACCAACAAUTT against Tbx20	inactive: 0.301
CCUCUGGAGGAGUAAGGUUTT against Trh	inactive: -0.497
GGUUCAGAUAUCUCAGUAUTT against Rcor2	inactive: -0.999
CCGUUUAUAAAGAUCAGCUTT against Sar1b	inactive: 1.92
GGACCACUCUGGUGGAUAATT against Stt3b	inactive: 0.341
GGGCUACUGAGAAAAUUACTT against Prr14	inactive: -0.206
CCGAGAACUACCUGUGUAATT against Unc119b	inactive: 0.266
GGAUAUAAGACACAAGCUGTT against Gbp4	inactive: 0.607
GGAAAAAAGCCGGGAAACCTT against Cd99	inactive: -1.07
CCACUCUUAAGAGGAUAUATT against Them6	inactive: 1.33
UCUAUGCAUGGCCCUUUAATT against Olfr726	inactive: 0.666
GGGCUUAUUGGAAGUCAGATT against Ttc13	inactive: -0.248
GGUCUUUCAGUUGGAUAUATT against Celsr2	inactive: 0.627
GGUUUCACUAAGACUUAACTT against Ddx27	inactive: -0.869
GGUCACAAACAGAUUAAUUTT against Ahcy	inactive: -0.404
GGCUAUGUCUGUUUCCUUUTT against Defa-rs10	inactive: 0.963
GACACCUACUUCAUUGGCCTT against Olfr1245	inactive: -1.23
GGAGAUUCAUCGCUACCUUTT against Ccna1	active: 2.46
GGCAGAUGAGGGCUUAGCATT against Aph1a	inactive: -1.08
GGAUGAAGUGGAAGAUUACTT against Naip2	inactive: 0.1
GGAACUUACAUCAGAAAUGTT against Zdhhc2	inactive: -1.61
GCCGGAUGGCACAUUCGUATT against Cda	inactive: -0.281

Quoted from above (3 entries):
Sequence	z-score
CGCAAAACCGGGUCAAAUCTT against F9	inactive: 1.96
GGUAAAACAGGUUUAGAGATT against Slc1a4	inactive: -0.46
GGAUACCUUGCCUUUCUUATT against Bmpr1a	inactive: -0.538
